In the supplement of paper PMC12823440, “Inhibitors supercharge kinase turnover through native proteolytic circuits” (Nature, 2025):
Where a name gives a salt, the structure may show the parent alone. The list shows a part of the results. Hit calls seldom repeat between salt and free forms of one compound.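 In K562 cells expressing nanoluciferase-fused kinases, luminescence was recorded at 4 h intervals between 2 and 18 h, normalized as percent of control with DMSO at 100% and a positive control at 0%. A significant (2 sigma) signal drop marks a time point as decreased. The authors' rule for a hit is not shown and takes in more than the number of time points.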

The chains behind the UniProt entries cited, without tags or fusion partners. Where a name states a change or a piece, a line headed by the entry shows the natural chain unless it says otherwise.
UniProt O75460: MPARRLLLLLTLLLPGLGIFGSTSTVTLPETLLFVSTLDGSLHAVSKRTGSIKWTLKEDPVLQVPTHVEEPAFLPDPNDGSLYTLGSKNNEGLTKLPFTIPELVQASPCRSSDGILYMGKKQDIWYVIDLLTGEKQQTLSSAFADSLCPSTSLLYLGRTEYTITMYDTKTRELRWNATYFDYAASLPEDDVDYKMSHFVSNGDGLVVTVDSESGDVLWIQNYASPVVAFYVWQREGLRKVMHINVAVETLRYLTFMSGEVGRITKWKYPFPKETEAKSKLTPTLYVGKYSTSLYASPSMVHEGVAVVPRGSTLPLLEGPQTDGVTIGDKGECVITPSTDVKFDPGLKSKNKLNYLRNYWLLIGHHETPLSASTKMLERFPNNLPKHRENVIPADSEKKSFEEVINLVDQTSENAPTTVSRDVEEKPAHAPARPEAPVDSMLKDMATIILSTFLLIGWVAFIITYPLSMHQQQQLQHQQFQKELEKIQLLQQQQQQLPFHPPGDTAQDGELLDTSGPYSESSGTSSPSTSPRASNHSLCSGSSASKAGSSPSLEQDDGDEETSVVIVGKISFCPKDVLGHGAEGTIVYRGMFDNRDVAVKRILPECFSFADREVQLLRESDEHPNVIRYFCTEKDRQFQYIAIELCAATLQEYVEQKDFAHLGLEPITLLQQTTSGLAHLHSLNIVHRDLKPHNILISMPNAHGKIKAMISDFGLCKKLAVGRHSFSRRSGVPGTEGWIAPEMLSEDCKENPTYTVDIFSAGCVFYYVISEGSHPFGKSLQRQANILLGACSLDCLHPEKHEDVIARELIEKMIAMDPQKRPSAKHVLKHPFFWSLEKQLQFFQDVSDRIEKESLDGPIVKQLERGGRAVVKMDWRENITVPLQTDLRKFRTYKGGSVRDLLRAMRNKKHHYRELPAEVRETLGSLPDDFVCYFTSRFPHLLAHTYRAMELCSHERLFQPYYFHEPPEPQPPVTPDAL
UniProt P11362, whole entry, looked up: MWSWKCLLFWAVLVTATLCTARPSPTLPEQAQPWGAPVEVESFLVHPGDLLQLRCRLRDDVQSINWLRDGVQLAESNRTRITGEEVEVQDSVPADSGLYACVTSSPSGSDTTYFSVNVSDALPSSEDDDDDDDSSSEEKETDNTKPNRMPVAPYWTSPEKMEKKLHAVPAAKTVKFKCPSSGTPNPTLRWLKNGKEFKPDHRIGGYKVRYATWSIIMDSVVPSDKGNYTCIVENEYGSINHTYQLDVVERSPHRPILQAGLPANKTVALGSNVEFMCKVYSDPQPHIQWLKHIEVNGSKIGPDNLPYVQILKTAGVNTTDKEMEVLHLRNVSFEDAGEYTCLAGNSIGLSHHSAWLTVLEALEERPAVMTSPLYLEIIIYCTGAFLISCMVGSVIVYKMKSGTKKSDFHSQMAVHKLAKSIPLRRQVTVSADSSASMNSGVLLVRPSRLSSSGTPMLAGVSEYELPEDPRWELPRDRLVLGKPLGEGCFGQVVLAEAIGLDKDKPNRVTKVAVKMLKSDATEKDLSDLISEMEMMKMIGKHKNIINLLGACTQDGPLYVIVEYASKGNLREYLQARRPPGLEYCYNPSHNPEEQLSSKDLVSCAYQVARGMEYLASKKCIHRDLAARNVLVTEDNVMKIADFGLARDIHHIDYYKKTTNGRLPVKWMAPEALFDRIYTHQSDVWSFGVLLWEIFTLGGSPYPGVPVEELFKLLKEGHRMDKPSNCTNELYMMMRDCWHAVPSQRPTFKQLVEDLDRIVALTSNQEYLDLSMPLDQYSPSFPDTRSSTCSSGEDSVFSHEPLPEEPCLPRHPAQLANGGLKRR
UniProt P21802, whole entry, looked up: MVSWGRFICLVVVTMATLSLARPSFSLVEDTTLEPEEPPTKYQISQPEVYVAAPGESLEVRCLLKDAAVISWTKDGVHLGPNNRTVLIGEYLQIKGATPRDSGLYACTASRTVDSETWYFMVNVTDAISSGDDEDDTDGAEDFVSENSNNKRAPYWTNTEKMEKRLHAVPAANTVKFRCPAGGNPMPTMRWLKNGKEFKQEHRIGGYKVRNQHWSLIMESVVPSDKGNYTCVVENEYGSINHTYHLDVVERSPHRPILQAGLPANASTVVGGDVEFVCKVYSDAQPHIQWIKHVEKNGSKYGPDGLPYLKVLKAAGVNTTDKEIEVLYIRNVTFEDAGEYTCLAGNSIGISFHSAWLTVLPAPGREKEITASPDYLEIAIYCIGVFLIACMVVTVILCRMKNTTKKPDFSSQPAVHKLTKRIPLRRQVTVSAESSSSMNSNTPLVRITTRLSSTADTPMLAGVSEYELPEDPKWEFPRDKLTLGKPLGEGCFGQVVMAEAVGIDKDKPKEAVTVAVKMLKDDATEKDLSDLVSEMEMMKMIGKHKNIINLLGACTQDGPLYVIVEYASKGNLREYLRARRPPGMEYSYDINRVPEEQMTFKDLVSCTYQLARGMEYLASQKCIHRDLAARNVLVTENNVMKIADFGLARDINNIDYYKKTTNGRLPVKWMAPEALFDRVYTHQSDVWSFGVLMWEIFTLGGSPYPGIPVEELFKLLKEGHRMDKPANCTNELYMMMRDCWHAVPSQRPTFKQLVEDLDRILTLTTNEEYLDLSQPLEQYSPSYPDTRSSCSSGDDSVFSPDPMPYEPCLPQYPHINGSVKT
UniProt P22607, whole entry, looked up: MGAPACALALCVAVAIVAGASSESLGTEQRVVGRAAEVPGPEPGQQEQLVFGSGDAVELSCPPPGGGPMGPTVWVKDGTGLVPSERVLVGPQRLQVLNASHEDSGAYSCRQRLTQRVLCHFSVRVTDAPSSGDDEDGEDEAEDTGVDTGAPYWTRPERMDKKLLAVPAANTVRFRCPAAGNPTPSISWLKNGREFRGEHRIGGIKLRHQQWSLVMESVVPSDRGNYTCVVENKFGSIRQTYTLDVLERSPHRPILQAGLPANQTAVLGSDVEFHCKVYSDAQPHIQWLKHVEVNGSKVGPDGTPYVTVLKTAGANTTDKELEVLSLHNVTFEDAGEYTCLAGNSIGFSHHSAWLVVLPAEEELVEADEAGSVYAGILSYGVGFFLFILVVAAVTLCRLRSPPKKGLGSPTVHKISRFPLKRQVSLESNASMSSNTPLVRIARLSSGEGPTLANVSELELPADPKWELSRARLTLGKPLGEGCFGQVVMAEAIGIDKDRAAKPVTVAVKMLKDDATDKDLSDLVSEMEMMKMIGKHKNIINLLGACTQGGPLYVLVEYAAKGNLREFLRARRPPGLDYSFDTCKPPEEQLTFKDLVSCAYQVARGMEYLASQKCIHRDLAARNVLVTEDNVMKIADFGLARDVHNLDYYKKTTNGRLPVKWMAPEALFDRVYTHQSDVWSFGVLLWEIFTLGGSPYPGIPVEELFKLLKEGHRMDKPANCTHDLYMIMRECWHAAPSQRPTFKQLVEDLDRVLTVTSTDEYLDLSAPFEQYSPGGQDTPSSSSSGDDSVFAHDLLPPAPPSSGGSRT
UniProt P36888, whole entry: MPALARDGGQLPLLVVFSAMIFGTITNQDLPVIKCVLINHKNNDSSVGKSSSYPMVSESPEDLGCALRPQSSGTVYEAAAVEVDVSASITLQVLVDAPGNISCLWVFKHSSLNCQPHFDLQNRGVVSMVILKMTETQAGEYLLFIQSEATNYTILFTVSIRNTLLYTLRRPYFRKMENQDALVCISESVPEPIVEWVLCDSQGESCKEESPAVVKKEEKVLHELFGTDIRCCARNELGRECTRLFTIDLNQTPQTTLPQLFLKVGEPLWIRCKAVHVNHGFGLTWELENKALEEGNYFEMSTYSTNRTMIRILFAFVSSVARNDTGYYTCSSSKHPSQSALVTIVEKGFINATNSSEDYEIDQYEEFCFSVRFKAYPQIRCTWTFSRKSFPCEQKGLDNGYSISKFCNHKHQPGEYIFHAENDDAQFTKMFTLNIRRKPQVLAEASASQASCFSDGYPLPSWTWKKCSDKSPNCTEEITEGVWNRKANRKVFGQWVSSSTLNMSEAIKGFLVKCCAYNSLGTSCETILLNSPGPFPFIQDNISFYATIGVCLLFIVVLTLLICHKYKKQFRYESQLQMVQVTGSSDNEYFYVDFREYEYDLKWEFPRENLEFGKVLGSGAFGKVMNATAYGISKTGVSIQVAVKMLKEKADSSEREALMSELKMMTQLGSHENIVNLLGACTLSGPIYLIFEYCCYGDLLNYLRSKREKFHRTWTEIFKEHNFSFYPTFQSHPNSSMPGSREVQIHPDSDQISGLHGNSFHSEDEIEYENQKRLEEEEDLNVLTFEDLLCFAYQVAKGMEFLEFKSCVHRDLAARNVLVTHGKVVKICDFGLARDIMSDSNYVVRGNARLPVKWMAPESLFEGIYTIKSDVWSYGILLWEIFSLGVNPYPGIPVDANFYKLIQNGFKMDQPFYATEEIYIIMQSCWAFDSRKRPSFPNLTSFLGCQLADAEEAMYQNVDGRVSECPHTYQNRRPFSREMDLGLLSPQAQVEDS
UniProt P06241, whole entry, looked up: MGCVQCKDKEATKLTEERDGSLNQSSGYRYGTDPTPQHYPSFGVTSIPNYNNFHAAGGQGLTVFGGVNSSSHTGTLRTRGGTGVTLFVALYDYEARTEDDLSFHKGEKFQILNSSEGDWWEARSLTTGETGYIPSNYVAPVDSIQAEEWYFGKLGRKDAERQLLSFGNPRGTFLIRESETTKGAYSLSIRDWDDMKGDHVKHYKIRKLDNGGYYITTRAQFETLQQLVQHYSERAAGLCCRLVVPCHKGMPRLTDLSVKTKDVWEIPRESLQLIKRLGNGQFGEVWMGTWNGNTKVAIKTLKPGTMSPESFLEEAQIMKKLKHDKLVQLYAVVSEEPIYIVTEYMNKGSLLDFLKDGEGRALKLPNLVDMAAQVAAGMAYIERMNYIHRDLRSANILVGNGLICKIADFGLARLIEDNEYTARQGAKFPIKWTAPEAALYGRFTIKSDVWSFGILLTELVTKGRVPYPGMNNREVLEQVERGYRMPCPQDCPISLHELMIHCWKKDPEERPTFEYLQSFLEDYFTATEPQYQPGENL
UniProt P49840: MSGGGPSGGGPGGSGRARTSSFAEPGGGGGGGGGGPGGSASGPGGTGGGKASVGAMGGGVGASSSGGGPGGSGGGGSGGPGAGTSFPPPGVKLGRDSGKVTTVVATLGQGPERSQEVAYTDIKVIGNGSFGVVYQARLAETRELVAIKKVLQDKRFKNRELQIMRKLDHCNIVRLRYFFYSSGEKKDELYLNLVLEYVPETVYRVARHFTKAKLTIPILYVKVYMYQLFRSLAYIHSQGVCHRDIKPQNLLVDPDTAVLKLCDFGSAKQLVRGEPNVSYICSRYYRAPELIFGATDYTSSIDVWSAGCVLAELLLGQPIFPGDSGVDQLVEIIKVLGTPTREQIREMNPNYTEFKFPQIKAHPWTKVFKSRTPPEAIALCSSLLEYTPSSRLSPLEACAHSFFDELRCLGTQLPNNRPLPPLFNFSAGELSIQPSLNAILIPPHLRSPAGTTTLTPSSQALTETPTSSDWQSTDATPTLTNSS

Key:
Experiment in all cases: kinase-Nluc reporter destabilization hit call (1 = scored as downregulated) (binary); higher = compound decreases kinase abundance
Conditions in all cases: K562; 2-18 h
[1] = molecular target: ERN1 (UniProt O75460)
[2] = molecular target: FGFR1 (UniProt P11362)
[3] = molecular target: FGFR2 (UniProt P21802)
[4] = molecular target: FGFR3 (UniProt P22607)
[5] = molecular target: FGR (UniProt P09769)
[6] = molecular target: FLT3 (UniProt P36888)
[7] = molecular target: FYN (UniProt P06241)
[8] = molecular target: GSK3A (UniProt P49840)
[9] = molecular target: HER2 (UniProt P04626)
[10] = molecular target: INSRR (UniProt P14616)

Measured: kinase-Nluc reporter destabilization hit call

O=C(CO)N1CCC(c2n[nH]c(-c3ccc(Cl)cc3)c2-c2ccncn2)CC1 (10 µM)
inactive: [1] 0 | [2] 0 | [3] 0 | [4] 0 | [5] 0 | [6] 0 | [7] 0 | [8] 0 | [9] 0 | [10] 0

O=C(O)CCc1ccc(NCc2cccc(Oc3ccccc3)c2)cc1 (10 µM)
inactive: [1] 0 | [2] 0 | [3] 0 | [4] 0 | [5] 0 | [6] 0 | [7] 0 | [8] 0 | [9] 0 | [10] 0

N#Cc1ccc(-c2c(-c3ncn[nH]3)sc(N3CCOCC3)c2C#N)c(F)c1 (10 µM)
inactive: [1] 0 | [2] 0 | [3] 0 | [4] 0 | [5] 0 | [6] 0 | [7] 0 | [8] 0 | [9] 0 | [10] 0

CN(C)Cc1cccc(N=C(c2ccccc2)c2c(O)[nH]c3cc(C(N)=O)ccc23)c1 (10 µM)
inactive: [1] 0 | [2] 0 | [3] 0 | [4] 0 | [5] 0 | [6] 0 | [7] 0 | [8] 0 | [9] 0 | [10] 0

COC(=O)N[C@@H](C)CNc1nccc(-c2cn(C(C)C)nc2-c2cc(Cl)cc(NS(C)(=O)=O)c2F)n1 [Encorafenib] (10 µM)
inactive: [1] 0 | [2] 0 | [3] 0 | [4] 0 | [5] 0 | [6] 0 | [7] 0 | [8] 0 | [9] 0 | [10] 0

Taken from above, three compounds:
N#Cc1ccc(-c2c(-c3ncn[nH]3)sc(N3CCOCC3)c2C#N)c(F)c1 (10 µM)
inactive: [1] 0 | [2] 0 | [3] 0 | [4] 0 | [5] 0 | [6] 0 | [7] 0 | [8] 0 | [9] 0 | [10] 0

CN(C)Cc1cccc(N=C(c2ccccc2)c2c(O)[nH]c3cc(C(N)=O)ccc23)c1 (10 µM)
inactive: [1] 0 | [2] 0 | [3] 0 | [4] 0 | [5] 0 | [6] 0 | [7] 0 | [8] 0 | [9] 0 | [10] 0

COC(=O)N[C@@H](C)CNc1nccc(-c2cn(C(C)C)nc2-c2cc(Cl)cc(NS(C)(=O)=O)c2F)n1 [Encorafenib] (10 µM)
inactive: [1] 0 | [2] 0 | [3] 0 | [4] 0 | [5] 0 | [6] 0 | [7] 0 | [8] 0 | [9] 0 | [10] 0

The list continues:

C=CC(=O)N1CCC[C@@H](n2nc(C(=O)Nc3ccc(CC(=O)N(C)C)c(C)c3C)c3c(N)ncnc32)C1 (10 µM)
inactive: [1] 0 | [2] 0 | [3] 0 | [4] 0 | [5] 0 | [6] 0 | [7] 0 | [8] 0 | [9] 0 | [10] 0

C[C@H]1Cc2ccccc2N1C(=O)Cc1nc(N2CCOCC2)cc(=O)[nH]1 (2.5 µM)
inactive: [1] 0 | [2] 0 | [3] 0 | [4] 0 | [5] 0 | [6] 0 | [7] 0 | [8] 0 | [9] 0 | [10] 0

COc1cc(C(C)=O)cc(OC)c1O [Acetosyringone] (10 µM)
inactive: [1] 0 | [2] 0 | [3] 0 | [4] 0 | [5] 0 | [6] 0 | [7] 0 | [8] 0 | [9] 0 | [10] 0

c1cc(-c2cnn3cc(-c4ccc(N5CCNCC5)cc4)cnc23)c2cccnc2c1 (2.5 µM)
inactive: [1] 0 | [2] 0 | [3] 0 | [4] 0 | [5] 0 | [6] 0 | [7] 0 | [8] 0 | [9] 0 | [10] 0

COC(=O)[C@@]1(C)CC[C@]2(C(=O)O)CC[C@]3(C)C(=CC[C@@H]4[C@@]5(C)C[C@H](O)[C@H](O[C@@H]6OC[C@@H](O[C@@H]7O[C@H](CO)[C@@H](O)[C@H](O)[C@H]7O)[C@H](O)[C@H]6O)[C@@](C)(CO)[C@@H]5CC[C@]43C)[C@@H]2C1 [Esculentoside A] (10 µM)
inactive: [1] 0 | [2] 0 | [3] 0 | [4] 0 | [5] 0 | [6] 0 | [7] 0 | [8] 0 | [9] 0 | [10] 0

CN(C)C(=O)c1ccc(S(=O)(=O)c2ccc(NC(=O)[C@@](C)(O)C(F)(F)F)c(Cl)c2)cc1 (10 µM)
inactive: [1] 0 | [2] 0 | [3] 0 | [4] 0 | [5] 0 | [6] 0 | [7] 0 | [8] 0 | [9] 0 | [10] 0

CC(C)n1cnc2c(Nc3cccc(Cl)c3)nc(NCCO)nc21 (10 µM)
inactive: [1] 0 | [2] 0 | [3] 0 | [4] 0 | [5] 0 | [6] 0 | [7] 0 | [8] 0 | [9] 0 | [10] 0

COc1ccc(-n2c(C)c([N+](=O)[O-])c3ccc(O)cc32)cc1 (10 µM)
inactive: [1] 0 | [2] 0 | [3] 0 | [4] 0 | [5] 0 | [6] 0 | [7] 0 | [8] 0 | [9] 0 | [10] 0

COc1ncc(Nc2ncc([C@@H](C)N3CCN(S(C)(=O)=O)CC3)cc2-c2nc(C)nc(N)n2)cc1F (10 µM)
inactive: [1] 0 | [2] 0 | [3] 0 | [4] 0 | [5] 0 | [6] 0 | [7] 0 | [8] 0 | [9] 0 | [10] 0

CN1CC[C@H](c2c(O)cc(O)c3c(=O)cc(-c4ccc(C(F)(F)F)cc4Cl)oc23)[C@H]1CO [(2S,3R)-Voruciclib (hydrochloride)] (2.5 µM)
inactive: [1] 0 | [2] 0 | [3] 0 | [4] 0 | [5] 0 | [6] 0 | [7] 0 | [8] 0 | [9] 0 | [10] 0

CNC(=O)c1cc(Oc2ccc3nc(N[C@@H]4CCCC[C@H]4O)sc3c2)ccn1 (10 µM)
inactive: [1] 0 | [2] 0 | [3] 0 | [4] 0 | [5] 0 | [6] 0 | [7] 0 | [8] 0 | [9] 0 | [10] 0

COc1ccc2c(Oc3ccc(NC(=O)c4c(C)n(CC(C)(C)O)n(-c5ccccc5)c4=O)cc3F)ccnc2c1 (2.5 µM)
inactive: [1] 0 | [2] 0 | [3] 0 | [4] 0 | [5] 0 | [6] 0 | [7] 0 | [8] 0 | [9] 0 | [10] 0

CC(CCc1ccccn1)(CCc1ccccn1)C(=O)c1ccccc1 (10 µM)
inactive: [1] 0 | [2] 0 | [3] 0 | [4] 0 | [5] 0 | [6] 0 | [7] 0 | [8] 0 | [9] 0 | [10] 0

CCOC(=O)c1c2c3c(cccc3[nH]c1=O)C(=O)c1ccccc1-2 (10 µM)
inactive: [1] 0 | [2] 0 | [3] 0 | [4] 0 | [5] 0 | [6] 0 | [7] 0 | [8] 0 | [9] 0 | [10] 0

COc1cc(C(=O)N2CCC(N3CCN(C)CC3)CC2)ccc1Nc1ncc2c(n1)N(C)c1ccccc1C(=O)N2C (10 µM)
inactive: [1] 0 | [2] 0 | [3] 0 | [4] 0 | [5] 0 | [6] 0 | [7] 0 | [8] 0 | [9] 0 | [10] 0

CN1CCN(CCCNc2ncc(Cl)c(-c3cc4c(C(=O)NC5CC5)cccc4s3)n2)CC1 (10 µM)
inactive: [1] 0 | [2] 0 | [3] 0 | [4] 0 | [5] 0 | [6] 0 | [7] 0 | [8] 0 | [9] 0 | [10] 0

Cc1ccc(-c2ccc3c(ccc4sc5c(c43)NC[C@@H](C)NC5=O)n2)cn1 (10 µM)
inactive: [1] 0 | [2] 0 | [3] 0 | [4] 0 | [5] 0 | [6] 0 | [7] 0 | [8] 0 | [9] 0 | [10] 0

COC1(C(=O)N[C@@H](C)c2ccc(-n3cc(F)cn3)nc2)CCC(c2nc(C)cc(Nc3cc(C)[nH]n3)n2)CC1 (stereo partly drawn) [trans-Pralsetinib] (2.5 µM)
inactive: [1] 0 | [2] 0 | [3] 0 | [4] 0 | [5] 0 | [6] 0 | [7] 0 | [8] 0 | [9] 0 | [10] 0

CCOc1c([C@H](C)n2nc(C)c3c(N)ncnc32)cc(Cl)c(F)c1[C@@H]1CNC(=O)C1 [Parsaclisib (hydrochloride)] (10 µM)
inactive: [1] 0 | [2] 0 | [3] 0 | [4] 0 | [5] 0 | [6] 0 | [7] 0 | [8] 0 | [9] 0 | [10] 0

CC(C)(C)C(=O)N1N=CC[C@H]1c1ccccc1 (10 µM)
inactive: [1] 0 | [2] 0 | [3] 0 | [4] 0 | [5] 0 | [6] 0 | [7] 0 | [8] 0 | [9] 0 | [10] 0

Cc1cnc(Nc2ccc(N3CCN(C)CC3)cc2)nc1Nc1cccc(S(=O)(=O)NC(C)(C)C)c1 (2.5 µM)
inactive: [1] 0 | [2] 0 | [3] 0 | [4] 0 | [5] 0 | [6] 0 | [7] 0 | [8] 0 | [9] 0 | [10] 0

CC(C)(C)Cn1c(N)nc2ccc(-c3[nH]c(C(C)(C)C)nc3-c3ccc(F)cc3)nc21 [Ralimetinib dimesylate] (2.5 µM)
inactive: [1] 0 | [2] 0 | [3] 0 | [4] 0 | [5] 0 | [6] 0 | [7] 0 | [8] 0 | [9] 0 | [10] 0

CCCCNC(=N)NC(=N)N [Buformin (hydrochloride)] (2.5 µM)
inactive: [1] 0 | [2] 0 | [3] 0 | [4] 0 | [5] 0 | [6] 0 | [7] 0 | [8] 0 | [9] 0 | [10] 0

COc1cnccc1Nc1nc(-c2nn(Cc3c(F)cc(OCCO)cc3F)c3ccccc23)ncc1OC (10 µM)
inactive: [1] 0 | [2] 0 | [3] 0 | [4] 0 | [5] 0 | [6] 0 | [7] 0 | [8] 0 | [9] 0 | [10] 0

O=C(NOCCO)c1ccc2cncn2c1Nc1ccc(I)cc1F (10 µM)
inactive: [1] 0 | [2] 0 | [3] 0 | [4] 0 | [5] 0 | [6] 0 | [7] 0 | [8] 0 | [9] 0 | [10] 0

COc1ccc(CCNc2ncc3c(=O)n(-c4cccc(F)c4)c(=O)[nH]c3n2)cc1OC (2 µM)
inactive: [1] 0 | [2] 0 | [3] 0 | [4] 0 | [5] 0 | [6] 0 | [7] 0 | [8] 0 | [9] 0 | [10] 0

O=Nc1c(-c2c(O)[nH]c3ccccc23)[nH]c2ccccc12 [Indirubin-3'-monoxime] (2.5 µM)
inactive: [1] 0 | [2] 0 | [3] 0 | [4] 0 | [5] 0 | [6] 0 | [7] 0 | [8] 0 | [9] 0 | [10] 0

O=C(Nc1cccc(-c2nncn2C2CC2)c1)c1cc(-n2cnc(C3CC3)c2)ccn1 (10 µM)
inactive: [1] 0 | [2] 0 | [3] 0 | [4] 0 | [5] 0 | [6] 0 | [7] 0 | [8] 0 | [9] 0 | [10] 0

CN(C)Cc1cccc(N=C(c2ccccc2)c2c(O)[nH]c3cc(C(=O)N(C)C)ccc23)c1 (10 µM)
inactive: [1] 0 | [2] 0 | [3] 0 | [4] 0 | [5] 0 | [6] 0 | [7] 0 | [8] 0 | [9] 0 | [10] 0
